Laboratory results: EP4713368A1
No constants are given. Whether binding was seen depends on the method and setting. Some entries that bind do so weakly or less than the wild type.

Protein sequences, listed by entry. Tags and fused reporters are not part of them. Lines headed by an entry give the natural chain unless they say otherwise; changes in a name come on top.
UniProt P10747: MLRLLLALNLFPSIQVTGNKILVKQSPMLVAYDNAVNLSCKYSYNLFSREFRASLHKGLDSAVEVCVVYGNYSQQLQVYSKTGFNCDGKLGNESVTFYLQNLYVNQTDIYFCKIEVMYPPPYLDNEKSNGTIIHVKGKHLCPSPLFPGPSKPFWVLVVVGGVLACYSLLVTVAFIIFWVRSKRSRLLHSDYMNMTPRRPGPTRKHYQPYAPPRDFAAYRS

Experiments:
human CD28 (human) [1] = target: human CD28 (human) (UniProt P10747); experiment: selection from yeast-presented synthetic human antibody libraries
human CD28 (human) [2] = target: human CD28 (human) (UniProt P10747); experiment: affinity maturation of CD28-binding antibodies (Example 10: Discovery of Additional Antibodies that Bind to CD28)

| binding (human CD28 (human) [1]) | binding (human CD28 (human) [2]) | Binder |
| --- | --- | --- |
| binds | – | Ab No. 53 (antibody, V domains shown) VH: QVQLQESGPGLVKPSETLSLTCAVSGYSISSGYYWGWIRQPPGKGLEWIGSIYHSGSTYYNPSLKSRVTISVDTSKNQFSLKLSSVTAADTAVYYCTRVEGYFWSGLHWGQGTLVTVSS VL: QSALTQPASVSGSPGQSITISCTGTGSDVGGYNYVSWYQQHPGKAPKLIIYEVSNRPSGVSNRFSGSKSGNTASLTISGLQAEDEADYYCSSYTKDNLEFGGGTKLTVL |
| – | binds | Ab No. 70e (antibody, V domains shown) VH: EVQLLESGGGLVQPGGSLRLSCAASGFDFANYAMSWVRQAPGKERELVSAISGSGGSTYYADSVKGRFTISRDNSKNTLYLQMNSLRAEDTAVYYCAAHASGSYYLDASRDYDADYWGQGTQVTVSS |
| – | binds | Ab No. 70f (antibody, V domains shown) VH: EVQLLESGGGLVQPGGSLRLSCAASGFTFSSYAMSWVRQAPGKERELVSAISGSGGSTYYADSVKGRFTISRDNSKNTLYLQMNSLRAEDTAVYYCAAHASGSYYLDASRDYDADYWGQGTQVTVSS |
| binds | – | Ab No. 49 (antibody, V domains shown) VH: EVQLLESGGGLVQPGGSLRLSCAASGFTFSSYAMSWVRQAPGKGLEWVSAISGSGGSTYYADSVKGRFTISRDNSKNTLYLQMNSLRAEDTAVYYCVRAPGIAAAEYSFDFWGQGTLVTVSS VL: QSALTQPRSVSGSPGQSVTISCTGTSSDVGGYNYVSWYQQHPGKAPKLLIYDVSKRPSGVPDRFSGSKSGNTASLTISGLQAEDEADYYCSSYAEGVQVGFGGGTKLTVL |
| binds | – | Ab No. 50 (antibody, V domains shown) VH: EVQLLESGGGLVQPGGSLRLSCAASGFTFSSYAMSWVRQAPGKGLEWVSAISGSGGSTYYADSVKGRFTISRDNSKNTLYLQMNSLRAEDTAVYYCVRAPGLRFLEYSFDLWGRGTLVTVSS VL: QSALTQPRSVSGSPGQSVTISCTGTSSDVGGYNYVSWYQQHPGKAPKLLIYDVSKRPSGVPDRFSGSKSGNTASLTISGLQAEDEADYYCSSWAGSYRVAFGGGTKLTVL |
| – | binds | Ab No. 83a (antibody, V domains shown) VH: EVQLLESGGGLVQPGGSLRLSCAASGFTFSDTVMNWYRQAPGKEGELVSAISRSGDNTYYADSVKGRFTISRDNSKNTLYLQMNSLRAEDTAVYYCNARRYQSSGGDVWGQGTQVTVSS |
| – | binds | Ab No. 83e (antibody, V domains shown) VH: EVQLLESGGGLVQPGGSLRLSCAASGFTFSSNTMTWYRQAPGKERELVSAISKSGDDTYYADSVKGRFTISRDNSKNTLYLQMNSLRAEDTAVYYCNARRYQSSGGDVWGQGTQVTVSS |
| – | binds | Ab No. 83d (antibody, V domains shown) VH: EVQLLESGGGLVQPGGSLRLSCAASGFTFSDHSMNWYRQAPGKERELVSAISGGGEGTYYADSVKGRFTISRDNSKNTLYLQMNSLRAEDTAVYYCNARRYQSSGGDVWGQGTQVTVSS |
| – | binds | Ab No. 83c (antibody, V domains shown) VH: EVQLLESGGGLVQPGGSLRLSCAASGFTFSSNVMTWYRQAPGKERELVSAISGSGSDTYYADSVKGRFTISRDNSKNTLYLQMNSLRAEDTAVYYCNARRYQSSGGDVWGQGTQVTVSS |
| – | binds | Ab No. 83b (antibody, V domains shown) VH: EVQLLESGGGLVQPGGSLRLSCAASGFTFTASAMTWYRQAPGKERELVSAISGSGSDTYYADSVKGRFTISRDNSKNTLYLQMNSLRAEDTAVYYCNARRYQSSGGDVWGQGTQVTVSS |
| binds | – | Ab No. 51 (antibody, V domains shown) VH: QVQLQESGPGLVKPSETLSLTCAVSGYSISSGYYWGWIRQPPGKGLEWIGSIYHSGSTYYNPSLKSRVTISVDTSKNQFSLKLSSVTAADTAVYYCARDRGYAAGPGRGTFDYWGQGTLVTVSS VL: NFVLTQPHSVSESPGKTVTISCTRSSGSIASNYVQWYQQRPGSSPTTVIYEDNQRPSGVPDRFSGSIDSSSNSASLTISGLKTEDEADYYCQSYDSSVHWVFGGGTKLTVL |
| binds | – | Ab No. 52 (antibody, V domains shown) VH: QVQLQESGPGLVKPSETLSLTCAVSGYSISSGYYWGWIRQPPGKGLEWIGSIYHSGSTYYNPSLKSRVTISVDTSKNQFSLKLSSVTAADTAVYYCARDRGYAAGPGRGTFDYWGQGTLVTVSS VL: NFVLTQPHSVSESPGKTVTISCTRSSGSIASNYVQWYQQRPGSSPTTVIYEDNQRPSGVPDRFSGSIDSSSNSASLTISGLKTEDEADYYCQSYDVDNHWIFGGGTKLTVL |

More lines, now with the values behind:

| Binder | binding (human CD28 (human) [1]) | binding (human CD28 (human) [2]) |
| --- | --- | --- |
| Ab No. 34 (antibody, V domains shown) VH: QLQLQESGPGLVKPSETLSLTCTVSGGSISSSDYYWGWIRQPPGKGLEWIGSIYYSGSTYYNPSLKSRVTISVDTSKNQFSLKLSSVTAADTAVYYCARISDRSGTAQDYWGQGTLVTVSS VL: DIQMTQSPSSVSASVGDRVTITCRASQGISSWLAWYQQKPGKAPKLLIYAASSLQSGVPSRFSGSGSGTDFTLTISSLQPEDFATYYCQQAFSHPTFGGGTKVEIK | binds | – |
| Ab No. 37 (antibody, V domains shown) VH: QLQLQESGPGLVKPPETLSLTCTVSGGSISSSDYYWGWIRQPPGKGLEWIGSIYYSGSTYYNPSLKSRVTISVDTSKNQFSLKLSSVTAADTAVYYCTRVASDYAVEQDWGQGTLVTVSS VL: DIQMTQSPSSLSASVGDRVTITCRASQSISSYLNWYQQKPGKAPKLLISAASSLQSGVPSRFSGSGSGTDFTLTISSLQPEDFATYYCQQSSHSPITFGGGTKVEIK | binds | – |
| Ab No. 38 (antibody, V domains shown) VH: QVQLQESGPGLVKPSGTLSLTCAVSGGSISSSNWWSWVRQPPGKGLEWIGEIYHSGSTNYNPSLKSRVTISVDKSKNQFSLKLSSVTAADTAVYYCARAYYGYSGTPYNWFDSWGQGTLVTVSS VL: DIQMTQSPSSLSASVGDRVTITCRASQSISSYLNWYQQKPGKAPKLLIYAASSLQSGVPSRFSGSGSGTDFTLTISSLQPEDFATYYCQQTVSDPITFGGGTKVEIK | binds | – |
| Ab No. 31 (antibody, V domains shown) VH: QLQLQESGPGLVKPSETLSLTCTVSGGSISSSDYYWGWIRQPPGKGLEWIGSIYYSGSTYYNPSLKSRVTISVDTSKNQFSLKLSSVTAADTAVYYCAKVTAIASAFSHWGQGTLVTVSS VL: EIVMTQSPATLSVSPGERATLSCRASQSVGSNLAWYQQKPGQAPRLLIYGASTRATGIPARFSGSGSGTEFTLTISSLQSEDFAVYYCQQVNYHPITFGGGTKVEIK | binds | – |
| Ab No. 33 (antibody, V domains shown) VH: QVQLQESGPGLVKPSETLSLTCTVSGGSISSSDYYWGWIRQPPGKGLEWIGSIYYSGSTYYNPSLKSRVTISVDTSKNQFSLKLSSVTAADTAVYYCARIEAAAASATHWGQGTLVTVSS VL: DIQMTQSPSSVSASVGDRVTITCRASQGISSWLAWYQQKPGKAPKLLIYAASSLQSGVPSRFSGSGSGTDFTLTISSLQPEDFATYYCQQANYHPPTFGGGTKVEIK | binds | – |
| Ab No. 36 (antibody, V domains shown) VH: QLQLQESGPGLVKPSETLSLTCTVSGGSISSSDYYWGWIRQPPGKGLEWIGSIYYSGSTYYNPSLKSRVTISVDTSKNQFSLKLSSVTAADTAVYYCARVWGESGVTADWGQGTLVTVSS VL: EIVMTQSPATLSVSPGERATLSCRASQSVSSNLAWYQQKPGQAPRLLIYGASTRATGIPARFSGSGSGTEFTLTISSLQSEDFAVYYCQQANFFPPTFGGGTKVEIK | binds | – |
| Ab No. 32 (antibody, V domains shown) VH: QVQLQESGPGLVKPSQTLSLTCTVSGGSISSSDYYWGWIRQPPGKGLEWIGSIYYSGSTYYNPSLKSRVTISVDTSKNQFSLKLSSVTAADTAVYYCARAYGSSGAFDHWGQGTLVTVSS VL: DIQMTQSPSSVSASVGDRVTITCRASQGISSWLAWYQQKPGKAPKLLIYAASSLQSGVPSRFSGSGSGTDFTLTISSLQPEDFATYYCQQANSHPPTFGGGTKVEIK | binds | – |
| Ab No. 39 (antibody, V domains shown) VH: QVQLQESGPGLVKPSETLSLTCTVSGGSFSGYYWSWIRQPPGKGLEWIGEIDHSGSTNYNPSLKSRVTISVDTSKNQFSLKLSSVTAADTAVYYCARDLGRGFSYYPWGQGTLVTVSS VL: EIVMTQSPATLSVSPGERATLSCRASQSVSSNLAWYQQKPGQAPRLLIYGASTRATGIPARFSGSGSGTEFTLTISSLQSEDFAVYYCQQFNAFPITFGGGTKVEIK | binds | – |
| Ab No. 35 (antibody, V domains shown) VH: QLQLQESGPGLVKPSETLSLTCTVSGGSISSSDYYWGWIRQPPGKGLEWIGSIYYSGSTYYNPSLKSRVTISVDTSKNQFSLKLSSVAAADTAVYYCARVEGDSGSQVYWGQGTLVTVSS VL: EIVMTQSPATLSVSPGERATLSCRASQSVSSNLAWYQQKPGQAPRLLIYGASTRATGIPARFSGSGSGTEFTLTISSLQSEDFAVYYCQQANYFPPTFGGGTKVEIK | binds | – |
| Ab No. 46a (antibody, V domains shown) VH: QVQLVQSGAEVKKPGSSVKVSCKASGGTFSATAISWVRQAPGQGLEWMGGIIPISGTAVYAQKFQGRVTITADESTSTAYMELSSLRSEDTAVYYCARHSSSWGTAITSDYWGQGTLVTVSS VL: QSVLTQPPSVSGAPGQRVTISCTGSGSNIGAGYDVHWYQQLPGTAPKLLIYGNTNRPSGVPDRFSGSKSGTSASLAITGLQAEDEADYYCQSNDNSLRGILFGGGTKLTVL | – | binds |
| Ab No. 46b (antibody, V domains shown) VH: QVQLVQSGAEVKKPGSSVKVSCKASGGTFNTYAISWVRQAPGQGLEWMGGIIPISGTAVYAQKFQGRVTITADESTSTAYMELSSLRSEDTAVYYCARHSSSWGTAITSDYWGQGTLVTVSS VL: QSVLTQPPSVSGAPGQRVTISCTGSGSNIGAGYDVHWYQQLPGTAPKLLIYGNTNRPSGVPDRFSGSKSGTSASLAITGLQAEDEADYYCQSNDNSLRGILFGGGTKLTVL | – | binds |
| Ab No. 46c (antibody, V domains shown) VH: QVQLVQSGAEVKKPGSSVKVSCKASGGTFADYAISWVRQAPGQGLEWMGGIIPISGTANYAQKFQGRVTITADESTSTAYMELSSLRSEDTAVYYCARHSSSWGTAITSDYWGQGTLVTVSS VL: QSVLTQPPSVSGAPGQRVTISCTGSGSNIGAGYDVHWYQQLPGTAPKLLIYGNTNRPSGVPDRFSGSKSGTSASLAITGLQAEDEADYYCQSNDNSLRGILFGGGTKLTVL | – | binds |
